{
  "source": "patent US20080051454A1",
  "about": "“Compositions and methods for transient receptor potential vanilloid (TRPV) channel mediated treatments” (The Board of Trustees Operating Michigan State University, priority 2006, published 2008)",
  "tested_on": "Wistar rats (Con-NS, Con-HS, Cap-NS, Cap-HS)",
  "test": "Natriuretic, diuretic and depressor effects of i.v. diuretics in control and capsaicin-pretreated rats on normal or high sodium diet",
  "type": "in vivo, rat",
  "conditions": "intravenous",
  "method": "(a) Urine flow rate. (b) Urine sodium excretion. […] (c) Mean arterial pressure. […] Vehicle; trichlormethiazide.\n(a) Urine flow rate. (b) Urine sodium excretion. […] (c) Mean arterial pressure.\n(a) Urine flow rate. (b) Urine sodium excretion. […] (c) Mean arterial pressure. […] Vehicle; amiloride.\nDesign and methods Neonatal Wistar rats were treated with capsaicin or vehicle. Seven-week-old male rats were treated for 2 weeks with: vehicle plus a normal (Con-NS) or high (Con-HS) sodium diet, and capsaicin pretreatment plus a normal (Cap-NS) or high (Cap-HS) sodium diet. Mean arterial pressure (MAP), renal excretory function, and protein expression determined by Western blot were performed.",
  "data": [
    {"smiles": "NS(=O)(=O)c1cc(C(=O)O)c(NCc2ccco2)cc1Cl", "note": "[furosemide]", "values": [
      {"measurement": "urine flow / urine sodium excretion (words)", "result": "significantly increased"},
      {"measurement": "urine flow / urine sodium excretion (words)", "setting": "listed as Furosemide", "result": "increased"}
    ]}
  ]
}
